Experimental data reported in the supplement of paper PMC4635364.
Counter-ions that a name gives are not always drawn. The list shows a part of the results. This data set is noisy: repeats of one test often differ as much as different tests do.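 ReNCell VM, a human fetal ventral-midbrain neural progenitor line, was differentiated without mitogens. Blinded raters scored images stained for doublecortin (early neurons) or tyrosine hydroxylase (dopaminergic neurons) against untreated wells (0 = no change). Scores were averaged across repeats and both raters, and compounds averaging 2 or more were selected as hits for retesting.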

Assays:
[1] = tested on: ReNCell VM; assay: neuronal differentiation score (DCX+ cell fraction vs untreated, manual image score) (score (-3 to 3)); higher = more neuronal differentiation; conditions: 2 uM, 2 weeks
[2] = tested on: ReNCell VM; assay: dopaminergic neuron differentiation score (TH+ cell fraction vs untreated, manual image score) (score (0 to 3)); higher = more TH+ dopaminergic neuron differentiation; conditions: 2 uM, 4 weeks, BDNF 10 ng/ml + GDNF 10 ng/ml

In the case of `CC1=CC(=O)c2ccccc2C1=O` [Menadione], the neuronal differentiation score ([1]; library: Phytochemical) is reported as inactive: 0 and the “dopaminergic neuron differentiation score” value ([2]; library: Phytochemical) is reported as active: 3.

With `CCCCC#Cc1nc(N)c2ncn([C@@H]3O[C@H](C(=O)NCC)[C@@H](O)[C@H]3O)c2n1` the neuronal differentiation score ([1]; library: LOPAC) was inactive: 0 and the “dopaminergic neuron differentiation score” value ([2]; library: LOPAC) was inactive: 0.

`CC1(C)CC(=O)C(C2C3=C(CC(C)(C)CC3=O)Oc3ccccc32)C(=O)C1` (stereo unspecified) was tested, and the neuronal differentiation score ([1]; library: Tocriscreen) was inactive: 0 and the “dopaminergic neuron differentiation score” value ([2]; library: Tocriscreen) was inactive: 0.

In the case of `O=C1C=CC(=O)C2=C1C1c3ccccc3C2c2ccccc21`, the neuronal differentiation score ([1]; library: Tocriscreen) is reported as inactive: 0 and the “dopaminergic neuron differentiation score” value ([2]; library: Tocriscreen) is reported as inactive: 0.

`NC(Cc1cc(I)c(Oc2cc(I)c(O)c(I)c2)c(I)c1)C(=O)O` (stereo unspecified) [Thyroxine (L)] was tested, and the neuronal differentiation score ([1]; library: Prestwick) was inactive: 0 and the “dopaminergic neuron differentiation score” value ([2]; library: Prestwick) was inactive: 0.

For `Nc1ccc(S(=O)(=O)Nc2ccccn2)cc1`, the neuronal differentiation score ([1]; library: Spectrum) was inactive: 0 and the “dopaminergic neuron differentiation score” value ([2]; library: Spectrum) was inactive: 1.

For `CCOC(=O)C1=C(C)NC(C)=C(C(=O)OC)C1c1cccc([N+](=O)[O-])c1` (stereo unspecified), the neuronal differentiation score ([1]; library: Spectrum) was inactive: 0 and the “dopaminergic neuron differentiation score” value ([2]; library: Spectrum) was inactive: 0.

For `CC(=O)[C@H]1CC[C@H]2[C@@H]3CC=C4C[C@@H](OC(=O)CCC(=O)O)CC[C@]4(C)[C@H]3CC[C@]12C`, the neuronal differentiation score ([1]; library: Spectrum) was inactive: 0 and the “dopaminergic neuron differentiation score” value ([2]; library: Spectrum) was inactive: 0.

`Cc1ccc(N(CC2=NCCN2)c2cccc(O)c2)cc1` [Phentolamine hydrochloride] was tested, and the neuronal differentiation score ([1]; library: Prestwick) was inactive: 0 and the “dopaminergic neuron differentiation score” value ([2]; library: Prestwick) was inactive: 0.

For `CCCn1cnc2c1c(=O)n(CCCCC(C)=O)c(=O)n2C` [Propentofylline], the neuronal differentiation score ([1]; library: LOPAC) was inactive: 0 and the “dopaminergic neuron differentiation score” value ([2]; library: LOPAC) was inactive: 0.

For `NCCNC(=O)c1ccc(Cl)cc1` [Ro 16-6491 hydrochloride], the neuronal differentiation score ([1]; library: LOPAC) was inactive: 0 and the “dopaminergic neuron differentiation score” value ([2]; library: LOPAC) was inactive: 0.

`c1ccc(C(O[C@@H]2CCCN(CCc3ccc4c(c3)OCO4)C2)c2ccccc2)cc1` [Zamifenacin fumarate] was tested, and the neuronal differentiation score ([1]; library: Tocriscreen) was inactive: 0 and the “dopaminergic neuron differentiation score” value ([2]; library: Tocriscreen) was inactive: 0.

For `CCCCc1nc(Cl)c(CO)n1Cc1ccc(-c2ccccc2-c2nnn[nH]2)cc1` [Losartan], the neuronal differentiation score ([1]; library: Prestwick) was inactive: 0 and the “dopaminergic neuron differentiation score” value ([2]; library: Prestwick) was inactive: 0.

In the case of `CC(C)[C@@H](C)/C=C/[C@@H](C)[C@H]1CC[C@H]2C3=CC=C4C[C@@H](O)CC[C@]4(C)[C@H]3CC[C@]12C`, the neuronal differentiation score ([1]; library: Spectrum) is reported as inactive: -1 and the “dopaminergic neuron differentiation score” value ([2]; library: Spectrum) is reported as inactive: 1.

For `C[C@]1(OC(=O)/C=C/c2ccccc2)C[C@@H](O)[C@]2(O)C=CO[C@@H](O[C@@H]3O[C@H](CO)[C@@H](O)[C@H](O)[C@H]3O)[C@@H]21` [Harpagoside], the neuronal differentiation score ([1]; library: Phytochemical) was inactive: 0 and the “dopaminergic neuron differentiation score” value ([2]; library: Phytochemical) was inactive: 0.

For `COc1cc(C2=NC(=Cc3ccccc3)C(=O)O2)cc(OC)c1OC` [4-benzylidene-2-(3,4,5-trimethoxy-phenyl)-4h-oxazol-5-one], the neuronal differentiation score ([1]; library: Natural) was inactive: 0 and the “dopaminergic neuron differentiation score” value ([2]; library: Natural) was inactive: 0.

For `C[C@@H]1O[C@@H](O[C@H]2[C@H](Oc3cc(O)c4c(=O)cc(-c5ccc(O)cc5)oc4c3)O[C@H](CO)[C@@H](O)[C@@H]2O)[C@H](O)[C@H](O)[C@H]1O`, the neuronal differentiation score ([1]; library: Spectrum) was inactive: 0 and the “dopaminergic neuron differentiation score” value ([2]; library: Spectrum) was inactive: 0.

For `Nc1[nH]nc2nnc(-c3c(-c4ccccc4)nn4ccccc34)cc12`, the neuronal differentiation score ([1]; library: Tocriscreen) was inactive: 0 and the “dopaminergic neuron differentiation score” value ([2]; library: Tocriscreen) was inactive: 1.

For `NC(=O)N[C@@H](CCC(=O)O)C(=O)O`, the neuronal differentiation score ([1]; library: Spectrum) was inactive: 0 and the “dopaminergic neuron differentiation score” value ([2]; library: Spectrum) was inactive: 0.

For `CC1(C)[C@H](C(=O)O)N2C(=O)C[C@H]2S1(=O)=O` [Sulbactam], the neuronal differentiation score ([1]; library: Prestwick) was inactive: 0 and the “dopaminergic neuron differentiation score” value ([2]; library: Prestwick) was inactive: 0.

In the case of `COc1cc2ncn(-c3cc(OCc4ccccc4C(F)(F)F)c(C(N)=O)s3)c2cc1OC`, the neuronal differentiation score ([1]; library: Tocriscreen) is reported as inactive: 0 and the “dopaminergic neuron differentiation score” value ([2]; library: Tocriscreen) is reported as inactive: 0.

`Fc1ccc(-c2nc3n(c2-c2ccncc2)CCS3)cc1` was tested, and the neuronal differentiation score ([1]; library: Tocriscreen) was inactive: 1 and the “dopaminergic neuron differentiation score” value ([2]; library: Tocriscreen) was inactive: 0.

For `CN(C)c1cc2c(Nc3ccc4c(cnn4Cc4ccccc4)c3)ncnc2cn1`, the neuronal differentiation score ([1]; library: LOPAC) was inactive: 0 and the “dopaminergic neuron differentiation score” value ([2]; library: LOPAC) was inactive: 0.

In the case of `Nc1ccn([C@@H]2O[C@H](CO)[C@@H](O)[C@@H]2O)c(=O)n1` [Cytarabine], the neuronal differentiation score ([1]; library: Prestwick) is reported as inactive: 0 and the “dopaminergic neuron differentiation score” value ([2]; library: Prestwick) is reported as inactive: 0.

With `O=C1C=CC(=O)c2c1ccc1c2ccc2ccccc21` [Chrysene-1,4-quinone] the neuronal differentiation score ([1]; library: Prestwick) was inactive: 0 and the “dopaminergic neuron differentiation score” value ([2]; library: Prestwick) was inactive: 0.

For `O=C(/C=C/c1ccc(O)cc1)c1ccc(O)cc1O` [2,4,4-trihydroxychalcone], the neuronal differentiation score ([1]; library: Natural) was inactive: 0 and the “dopaminergic neuron differentiation score” value ([2]; library: Natural) was inactive: 0.

In the case of `CC(=O)O[C@H]1CC[C@]2(C)C3=C(CC[C@H]2C1(C)C)[C@]1(C)CC[C@H]([C@H](C)CCC=C(C)C)[C@@]1(C)CC3`, the neuronal differentiation score ([1]; library: Spectrum) is reported as inactive: 0 and the “dopaminergic neuron differentiation score” value ([2]; library: Spectrum) is reported as inactive: 0.

With `CCC[C@H](N[C@@H](C)C(=O)N1[C@H](C(=O)O)C[C@@H]2CCCC[C@@H]21)C(=O)OCC` [Perindopril] the neuronal differentiation score ([1]; library: Prestwick) was inactive: 0 and the “dopaminergic neuron differentiation score” value ([2]; library: Prestwick) was inactive: 0.

With `C=C1C(N)CC2CC1C2(C)C` (stereo not drawn) [3-AMINO-beta-PINENE] the neuronal differentiation score ([1]; library: Spectrum) was inactive: 0 and the “dopaminergic neuron differentiation score” value ([2]; library: Spectrum) was inactive: 0.

`CNC[C@H](O)[C@@H](O)[C@H](O)[C@H](O)CO` was tested, and the neuronal differentiation score ([1]; library: Spectrum) was inactive: 0 and the “dopaminergic neuron differentiation score” value ([2]; library: Spectrum) was inactive: 0.

`Oc1ccc(Cn2cc[nH]c2=S)cc1` [1-(4-Hydroxybenzyl)imidazole-2-thiol] was tested, and the neuronal differentiation score ([1]; library: LOPAC) was inactive: 0 and the “dopaminergic neuron differentiation score” value ([2]; library: LOPAC) was inactive: 0.

In the case of `CN(C)CCOC(=O)COc1ccc(Cl)cc1` [Centrophenoxine hydrochloride], the neuronal differentiation score ([1]; library: LOPAC) is reported as inactive: -1 and the “dopaminergic neuron differentiation score” value ([2]; library: LOPAC) is reported as inactive: 0.

For `C[C@@H]1C(=O)O[C@H]2C[C@@]34[C@H]5C[C@@H](C(C)(C)C)[C@]36[C@@H](OC(=O)[C@@H]6O)O[C@@]4(C(=O)O5)[C@]21O`, the neuronal differentiation score ([1]; library: Spectrum) was inactive: 0 and the “dopaminergic neuron differentiation score” value ([2]; library: Spectrum) was inactive: 0.
